This passage reports binding results from patent US20220169682A1 (PARIS SCIENCES ET LETTRES, published 2022).

These are yes or no findings as the source states them, for the method shown. Some entries that bind do so weakly or less than the wild type. Sequences can lack the tags named with a protein.

This assay deals with T1, NFAST (FAST fragment 1-114), recombinantly purified, His-tagged (Halorhodospira halophila (Ectothiorhodospira halophila)) (UniProt P16113).
T1 sequence: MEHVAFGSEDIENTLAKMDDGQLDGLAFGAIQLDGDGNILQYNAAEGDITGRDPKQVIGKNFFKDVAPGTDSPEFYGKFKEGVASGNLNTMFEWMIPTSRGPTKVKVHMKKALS
Kind of assay: fluorescence titration in presence of fluorogen.

GDSYWVFVKRV (acetylated at the N terminus and amidated at the C terminus) [CFAST11 synthetic peptide (FAST fragment 115-125)]: the binding result is given as “binds”.
